In PubChem BioAssay AID2685 (National Center for Advancing Translational Sciences (NCATS), 2010) one finds cell number change and AC50 data, which are given here for 62 compounds.

Broadly, the AC50 is the concentration giving half of the maximal activity seen. The low end stands for activity at low concentration, the high end for activity only at high concentration.

A short description of this experiment: qHTS Assay for Lipid Storage Modulators in Drosophila S3 Cells.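 For cell number change: cells counted by Cell Tracker Red CMTPX staining in the red channel.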 To be noted: BODIPY lipid droplet fluorescence, 18-24 h; for cell number change: measured here: cell count max response, cells fed with added oleic acid. The gist of the method: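 Drosophila S3 cells got compounds at several concentrations plus oleic acid (400 uM solution). Laser-scanning cytometry with 488 nm excitation read lipid droplets at 500-530 nm and cells at 575-640 nm. Percent activity was relative to 20 uM Triacsin C.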
(In qHTS, concentration-response curves come from the screen itself.)

Setting [1] is: measured here: cell number channel AC50, cells fed with added oleic acid.
The mark [2] stands for this setting: measured here: lipid fluorescence (Fed channel) AC50, cells fed with added oleic acid.

This is one part of the list. These are further read-outs of the screen, such as a control signal, another cell line or another target. No call is given for them. The list favours compounds with an active or inconclusive main result. The note in brackets gives the kind of curve behind each potency; many fits are weak.

`CCCc1nc2ccccc2c(C(=O)OCC(=O)NCc2ccc3c(c2)OCO3)c1CC`: the cell number change was -56%. Further, the AC50 under setting [1] was 29.1 µM [falling, partial curve, poor fit]. The AC50 under setting [2] is 0.206 µM [falling, full curve, poor fit].
Take `CCc1ccc(Nc2nc(C)cc(C)n2)cc1`: the cell number change was -6.04%.
Take `CCCCCCCCCCOC(=O)Cn1c(COc2ccccc2C)[n+](C)c2ccccc21`: the cell number change was -41.2%. For the same compound, under setting [1], the AC50 was 7.31 µM [falling, partial curve]. Besides, the AC50 under setting [2] is 2.59 µM [falling, full curve].
With `Cc1ccc(S(=O)(=O)n2c(CN3CCCC(C)C3)nc3ccccc32)cc1` (configuration not stated), under setting [1], the AC50 is 6.51 µM [rising, partial curve, poor fit].
For the compound `Cc1nn(Cc2ccc(Cl)cc2Cl)c(Cl)c1/C=C/C(=O)OCC(=O)NCC(F)(F)F`, the concentration at half-maximal activity (AC50) under setting [2] was 0.146 µM [rising, full curve, poor fit].
In the case of `CCOc1ccc(N(CC(=O)NCc2ccccc2)S(=O)(=O)c2ccc(C)cc2)cc1`, the cell number change was -29.4%.
For the compound `CCn1c(C)c(C)c2cc(C(=O)N3CCN(c4ccccc4)CC3)ccc21`, the AC50 under setting [1] is 3.26 µM [rising, single point].
Take `C=CCn1c(SCC(=O)Nc2cc(C)on2)nc2sc(CC)cc2c1=O`: the cell number change was 19.9%. Besides, under setting [2], the AC50 is 5.17 µM [rising, partial curve].
In the case of `COc1ccccc1C(=O)Nc1ccc2c(c1)nc(CCNC(=O)c1ccco1)n2C`, the cell number change amounted to 57.1%.
`Cc1ccc(N(C(=O)c2csnn2)C(C(=O)NC2CCCCC2)c2ccccn2)cc1C` (configuration not stated): the cell number change came out at 25.2%. Further, the AC50 under setting [2] was 29.1 µM [rising, partial curve, poor fit].
Regarding `CC(=O)Oc1ccc(-c2ccc(C(=O)NCCc3ccc(S(N)(=O)=O)cc3)cc2)cc1`, the cell number change stood at 191%. In addition, the AC50 under setting [1] is 18.4 µM [rising, partial curve].
`COc1ccccc1NC(=S)N(Cc1ccco1)Cc1cc2cccc(C)c2[nH]c1=O`: the cell number change worked out at 8.6%. In addition, under setting [2], the AC50 was 0.206 µM [rising, full curve, poor fit].
As for `Cc1cc(C)n2nc(C(=O)N/N=C/c3ccc(Cl)cc3)nc2n1`, the cell number change was -13.2%.
Turning to `CN(C)CCN(Cc1ccccc1)S(=O)(=O)c1csc(C(N)=O)c1`, the cell number change was determined as 52.3%. The AC50 under setting [1] is 29.1 µM [rising, single point]. For the same compound, the AC50 under setting [2] is 29.1 µM [falling, single point].
`CCc1cc(=O)oc2cc3oc(C)c(C)c3cc12`: the cell number change was determined as 9.52%. Moreover, the AC50 under setting [2] is 25.9 µM [rising, single point].
On to `Cn1cc(C(N)=O)c2ccccc21`, for which the cell number change is -12%. Also, the AC50 under setting [1] was 0.092 µM [falling, full curve, poor fit]. The AC50 under setting [2] was 0.0517 µM [falling, full curve, poor fit].
With `Cc1cc(C(F)(F)F)nn1CC(=O)N1CCOCC1`, the cell number change was -21.1%. Further, the AC50 under setting [2] was 29.1 µM [falling, single point].
Turning to `Cc1ccc(-c2nnc(NC(=O)c3ccc([N+](=O)[O-])o3)o2)c(C)c1`, the cell number change was 71.1%. Further, the AC50 under setting [1] was 16.4 µM [rising, partial curve].
As for `CCCCNC(=S)NNC(=O)c1csc(C)c1C`, the cell number change amounted to 4.97%. The AC50 under setting [2] was 6.51 µM [rising, single point].
In the case of `CC1(C(=O)NC2CCCCCCC2)CCC(=O)N1Cc1cccnc1` (configuration not stated), the AC50 under setting [2] was 0.00517 µM [falling, full curve, poor fit].
For the compound `CCN1CCc2c(sc(NC(=O)c3ccc(S(=O)(=O)N4CC(C)OC(C)C4)cc3)c2C(N)=O)C1` (configuration not stated), the cell number change was -21.1%.
Regarding `COc1ccc(OC)c(C2=NOC(C(=O)NCc3ccccn3)C2)c1` (configuration not stated), the cell number change was -2.83%. In addition, the AC50 under setting [2] is 4.61 µM [rising, partial curve, poor fit].
Take `CC1(C)CC(=O)C=C(Nc2ccc(OCC(F)(F)C(F)F)cc2)C1`: under setting [1], the AC50 was 2.91 µM [rising, partial curve].
Turning to `CCN(CC)C(=O)C1CCCN(c2ccc([N+](=O)[O-])cc2/C=N/NC(=O)c2ccc([N+](=O)[O-])cc2)C1` (configuration not stated), the cell number change came to 6.03%. The AC50 under setting [2] was 2.91 µM [rising, partial curve].
For the compound `Cc1ccc(S(=O)(=O)N2CCOCC2)cc1C(=O)Nc1ccc(N2CCCCCC2)cc1`, the cell number change is -44.8%. Further, under setting [1], the AC50 was 9.2 µM [falling, partial curve]. Moreover, under setting [2], the AC50 was 16.4 µM [falling, partial curve].
With `CC(C)(C)CC(=O)Nc1nnc(CCc2ccccc2)s1`, the cell number change was 9.46%. For the same compound, the AC50 under setting [2] was 23.1 µM [rising, single point].
Take `COc1cc2c(=O)n(Cc3ccco3)c(=O)n(CC(=O)c3ccc(Br)cc3)c2cc1OC`: the AC50 under setting [1] is 2.06 µM [rising, partial curve].
Consider `CC1CCN(S(=O)(=O)c2ccc3ncn(CC(=O)N4CCN(C)CC4)c(=O)c3c2)CC1`, for which the cell number change was -12.9%.
As for `Cc1noc(C)c1C(=O)OCC(=O)c1cc(C)n(Cc2ccccc2Cl)c1C`, the cell number change is -15.2%. Besides, under setting [2], the AC50 was 0.13 µM [rising, full curve, poor fit].
Regarding `O=C(Nc1nc2ccc(F)cc2s1)c1cccc(S(=O)(=O)N2CCc3ccccc32)c1`, the cell number change came out at 13%. Under setting [1], the AC50 was 2.31 µM [rising, partial curve]. Moreover, the AC50 under setting [2] is 2.31 µM [rising, full curve].
`Cc1ccc(S(=O)(=O)N2CC(O)C[C@H]2C(=O)OCC(=O)Nc2ccc(N3CCOCC3)cc2)cc1C` (some centres not stated): the cell number change turned out to be 12.4%.
Turning to `COC(=O)c1ncccc1SC`, the cell number change came out at 71.7%. Besides, the AC50 under setting [1] is 29.1 µM [rising, single point]. Under setting [2], the AC50 is 29.1 µM [rising, single point].
For `O=C(CCNS(=O)(=O)c1ccc(Br)cc1)NCc1ccc(F)cc1`, the cell number change was -33%. For the same compound, the AC50 under setting [1] is 13 µM [falling, partial curve, poor fit].
As to `CCN(CC)S(=O)(=O)c1ccc(Cl)c(NC(=O)c2ccc(C#N)cc2)c1`, the AC50 under setting [1] was 0.731 µM [rising, single point].
Still for that read-out and setting: the same measure for `CCOC(=O)c1ccc(COC(=O)c2cc3ccccc3oc2=O)o1`: 0.146 µM [falling, full curve, poor fit].
In the case of `COc1cc(NC(=O)c2ccccc2F)ccc1NC(=O)c1cc2ccccc2o1`, the cell number change is -29.6%. Under setting [1], the AC50 is 1.84 µM [falling, full curve, poor fit]. In addition, the AC50 under setting [2] was 1.03 µM [falling, full curve, poor fit].
`CCCNC(=S)N1CCN(Cc2ccc3c(c2)OCO3)CC1`: the cell number change is -7.32%. Also, under setting [2], the concentration at half-maximal activity (AC50) was 0.13 µM [falling, full curve, poor fit].
In the case of `CCN(CC)S(=O)(=O)c1csc(C(=O)Nc2ccccn2)c1`, the cell number change was found to be 245%. The AC50 under setting [1] is 18.4 µM [rising, single point].
In the case of `O=C(CCNC(=O)c1ccc(Cl)cc1)Nc1c(F)c(F)cc(F)c1F`, the cell number change is -13.6%. Besides, the AC50 under setting [1] is 1.64 µM [falling, partial curve]. Besides, the AC50 under setting [2] is 0.116 µM [falling, full curve].
Turning to `CC(=O)NCC(=O)NC1CC(C)(C)Cc2c1cnn2-c1ccccc1` (configuration not stated), the cell number change worked out at 3.94%.
Still for that read-out and setting: the same measure for `CC(C)c1c(C(=O)N/N=C/c2ccccc2C(=O)O)nnn1-c1nonc1N`: 9.06%.
For `Cc1cc(C)nc(CCNC(=O)c2cc(COc3ccc(F)cc3Cl)on2)n1`, the cell number change was found to be 14.1%. Also, under setting [2], the AC50 was 5.8 µM [rising, partial curve, poor fit].
For `COc1cc(-c2cc3nc(C)c(C)c(=O)n3[nH]2)cc(OC)c1OC`, the cell number change was -0.32%. In addition, under setting [2], the AC50 is 3.66 µM [rising, partial curve].
Consider `Cc1nc(SCc2ccccc2)nc2c1CCC2`, for which the AC50 under setting [1] was 6.51 µM [falling, single point].
As to `Cc1ccc(C)c(NC(=O)COC(=O)CNC(=O)c2ccccc2Cl)c1`, the cell number change is -49.2%.
As for `COc1ccccc1CC(=O)NNC(=O)c1ccco1`, the cell number change is 9.52%.
As for `CN(C)C(CNC(=O)c1cccc(S(=O)(=O)N2CC3(C)CC2CC(C)(C)C3)c1)c1ccco1` (configuration not stated), the cell number change was -10.2%. Moreover, the AC50 under setting [2] was 0.092 µM [rising, full curve, poor fit].
Turning to `CCSc1nnc(NC(=O)c2ccccc2)s1`, the cell number change turned out to be 34.3%. For the same compound, under setting [2], the AC50 is 0.92 µM [rising, full curve, poor fit].
On to `O=C(c1cnc2sccn2c1=O)N1CCN(c2ccccc2Cl)CC1`, for which the cell number change was found to be 4.7%. The AC50 under setting [1] was 0.146 µM [falling, full curve, poor fit].
In the case of `Cc1cc(C)c(S(C)(=O)=O)c(N(C)N)n1`, the cell number change was -30.5%. In addition, the AC50 under setting [2] was 0.00461 µM [falling, full curve, poor fit].
Take `CCOC(=O)c1c(C)[nH]c(C)c1S(=O)(=O)NCc1ccccc1C`: the cell number change is 19.1%.
As for `COc1cccc(N2CCN(C3CC(=O)N(c4ccc(C)c(Cl)c4)C3=O)CC2)c1` (configuration not stated), the cell number change is -8.95%.
Turning to `Cc1cc(C)c(C#N)c(SCc2cn3ccccc3n2)n1`, the cell number change stood at 1.99%. Further, the AC50 under setting [2] is 23.1 µM [rising, partial curve].
In the case of `COc1ccc(C(=O)N2CCN(S(=O)(=O)N3CCOCC3)CC2)cc1OC`, the cell number change was 5.4%. The concentration at half-maximal activity (AC50) under setting [1] was 6.51 µM [falling, single point]. Also, the AC50 under setting [2] is 6.51 µM [falling, single point].
Turning to `Cn1c(SCC(=O)Nc2cccc(F)c2)nnc1-c1cc2ccccc2o1`, the cell number change was -16.8%. Under setting [1], the AC50 was 0.0116 µM [falling, full curve, poor fit]. For the same compound, under setting [2], the AC50 is 1.84 µM [falling, partial curve].
Turning to `COc1ccc(-c2cc(=O)oc3cc(OC(C)C(=O)NCCCn4ccnc4)ccc23)cc1` (configuration not stated), the cell number change is 19.1%. In addition, the AC50 under setting [1] is 3.26 µM [rising, single point].
`COc1cccc(C(=O)Nc2cccc(NC(=O)c3cccs3)c2)c1`: the cell number change was -28.7%. In addition, the AC50 under setting [2] was 6.51 µM [rising, single point].
As to `COc1ccccc1NC(=O)CCCc1c[nH]c2ccccc12`, the cell number change was 6.4%. Further, the AC50 under setting [2] is 20.6 µM [rising, single point].
Turning to `O=C(Nc1sc2c(c1C(=O)O)CCC2)c1cccs1`, the cell number change turned out to be 32.7%. The AC50 under setting [1] was 4.61 µM [rising, single point].
For `O=C(NN=C1CCCC1)c1cc(O)cc(O)c1`, the cell number change stood at 9.38%.
`Cc1ccc(NC(=O)c2ccc(C(C)(C)C)cc2)cc1[N+](=O)[O-]`: the cell number change amounted to 6.99%. Also, the AC50 under setting [2] was 3.66 µM [rising, partial curve].
With `CCN1C(=O)/C(=C2/Sc3ccccc3N2CC)SC1=S`, the cell number change was -7.92%. For the same compound, the AC50 under setting [2] is 8.2 µM [falling, partial curve].
